No constants are given. Whether binding was seen depends on the method and setting. For some of these results: In cells and extracts the contact can be indirect. Some binding calls cover weakened binding; strength is not graded here. Blank lines part the entries; values can stand above or below the substance they belong to.
Assays:
MYO10-mScarlet = MYO10-mScarlet (UniProt Q9HD67); assay: FRET or BRET
[1] = molecular target: GFP-tagged full-length MYO10 (human) (UniProt Q9HD67); assay: co-IP
MYO10-HMM (bovine) = MYO10-HMM (bovine) (UniProt P79114); assay: co-IP
[2] = molecular target: GFP-tagged MYO10 motor domain (human) (UniProt Q9HD67); assay: pull-down

Protein sequences, listed by entry. Tags and fused reporters are not part of them. Lines headed by an entry give the natural chain unless they say otherwise; changes in a name come on top. Chains listed by the source or under a name are the forms on record and can include a tag or linker. Residues count along the entry.
UniProt Q9HD67: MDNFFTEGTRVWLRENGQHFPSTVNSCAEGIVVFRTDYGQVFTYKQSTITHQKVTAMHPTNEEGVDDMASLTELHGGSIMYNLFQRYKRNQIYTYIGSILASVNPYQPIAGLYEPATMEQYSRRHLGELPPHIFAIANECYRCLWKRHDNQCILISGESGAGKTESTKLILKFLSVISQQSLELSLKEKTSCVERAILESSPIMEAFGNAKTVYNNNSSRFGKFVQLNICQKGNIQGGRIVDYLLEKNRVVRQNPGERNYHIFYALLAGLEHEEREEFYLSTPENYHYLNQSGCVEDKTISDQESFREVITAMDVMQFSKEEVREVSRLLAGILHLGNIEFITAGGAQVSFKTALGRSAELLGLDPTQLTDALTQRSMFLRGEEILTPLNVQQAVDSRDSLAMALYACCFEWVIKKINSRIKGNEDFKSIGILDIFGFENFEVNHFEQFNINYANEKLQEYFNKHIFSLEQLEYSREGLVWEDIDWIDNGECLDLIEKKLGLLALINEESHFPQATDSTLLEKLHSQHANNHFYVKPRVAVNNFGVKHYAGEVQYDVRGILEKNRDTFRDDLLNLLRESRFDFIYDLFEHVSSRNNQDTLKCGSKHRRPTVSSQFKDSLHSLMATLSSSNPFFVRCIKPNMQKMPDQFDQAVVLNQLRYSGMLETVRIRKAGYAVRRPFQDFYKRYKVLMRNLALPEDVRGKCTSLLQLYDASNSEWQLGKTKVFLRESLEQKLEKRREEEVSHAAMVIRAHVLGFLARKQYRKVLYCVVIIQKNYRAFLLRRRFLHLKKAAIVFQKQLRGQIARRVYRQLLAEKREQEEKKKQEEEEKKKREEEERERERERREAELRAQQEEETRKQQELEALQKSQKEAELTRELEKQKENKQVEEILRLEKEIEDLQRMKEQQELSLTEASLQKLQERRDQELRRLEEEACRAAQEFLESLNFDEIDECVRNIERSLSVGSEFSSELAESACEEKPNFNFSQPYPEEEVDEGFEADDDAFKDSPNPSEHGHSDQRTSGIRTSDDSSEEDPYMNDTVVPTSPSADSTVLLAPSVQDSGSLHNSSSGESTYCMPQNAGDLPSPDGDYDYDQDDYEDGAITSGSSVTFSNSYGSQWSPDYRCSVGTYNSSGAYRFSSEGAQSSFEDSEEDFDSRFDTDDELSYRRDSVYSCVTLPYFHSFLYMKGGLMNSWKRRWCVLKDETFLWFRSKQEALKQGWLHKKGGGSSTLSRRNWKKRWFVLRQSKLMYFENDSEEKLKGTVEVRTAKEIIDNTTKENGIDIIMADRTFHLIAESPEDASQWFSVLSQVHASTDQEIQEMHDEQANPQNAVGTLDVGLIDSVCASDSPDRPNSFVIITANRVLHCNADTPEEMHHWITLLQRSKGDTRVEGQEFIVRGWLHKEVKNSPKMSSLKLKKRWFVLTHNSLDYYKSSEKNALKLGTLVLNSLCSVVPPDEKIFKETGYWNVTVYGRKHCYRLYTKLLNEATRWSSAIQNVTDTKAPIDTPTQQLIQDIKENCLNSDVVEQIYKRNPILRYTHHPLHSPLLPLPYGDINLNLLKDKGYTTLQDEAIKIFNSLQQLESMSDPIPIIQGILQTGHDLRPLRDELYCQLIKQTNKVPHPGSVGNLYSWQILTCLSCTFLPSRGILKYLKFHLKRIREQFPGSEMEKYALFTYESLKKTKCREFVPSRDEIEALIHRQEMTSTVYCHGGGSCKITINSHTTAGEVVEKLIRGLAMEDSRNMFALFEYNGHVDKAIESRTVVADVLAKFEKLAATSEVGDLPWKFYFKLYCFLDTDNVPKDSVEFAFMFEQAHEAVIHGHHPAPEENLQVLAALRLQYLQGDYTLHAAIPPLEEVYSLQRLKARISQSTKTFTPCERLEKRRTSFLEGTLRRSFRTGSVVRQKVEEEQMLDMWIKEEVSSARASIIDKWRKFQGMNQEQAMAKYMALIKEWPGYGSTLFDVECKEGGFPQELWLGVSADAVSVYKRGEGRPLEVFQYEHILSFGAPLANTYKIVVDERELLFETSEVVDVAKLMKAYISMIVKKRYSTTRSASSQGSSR
GFP-tagged MYO10 motor domain: residues 1-741 of Q9HD67
UniProt P79114, residues 2-948: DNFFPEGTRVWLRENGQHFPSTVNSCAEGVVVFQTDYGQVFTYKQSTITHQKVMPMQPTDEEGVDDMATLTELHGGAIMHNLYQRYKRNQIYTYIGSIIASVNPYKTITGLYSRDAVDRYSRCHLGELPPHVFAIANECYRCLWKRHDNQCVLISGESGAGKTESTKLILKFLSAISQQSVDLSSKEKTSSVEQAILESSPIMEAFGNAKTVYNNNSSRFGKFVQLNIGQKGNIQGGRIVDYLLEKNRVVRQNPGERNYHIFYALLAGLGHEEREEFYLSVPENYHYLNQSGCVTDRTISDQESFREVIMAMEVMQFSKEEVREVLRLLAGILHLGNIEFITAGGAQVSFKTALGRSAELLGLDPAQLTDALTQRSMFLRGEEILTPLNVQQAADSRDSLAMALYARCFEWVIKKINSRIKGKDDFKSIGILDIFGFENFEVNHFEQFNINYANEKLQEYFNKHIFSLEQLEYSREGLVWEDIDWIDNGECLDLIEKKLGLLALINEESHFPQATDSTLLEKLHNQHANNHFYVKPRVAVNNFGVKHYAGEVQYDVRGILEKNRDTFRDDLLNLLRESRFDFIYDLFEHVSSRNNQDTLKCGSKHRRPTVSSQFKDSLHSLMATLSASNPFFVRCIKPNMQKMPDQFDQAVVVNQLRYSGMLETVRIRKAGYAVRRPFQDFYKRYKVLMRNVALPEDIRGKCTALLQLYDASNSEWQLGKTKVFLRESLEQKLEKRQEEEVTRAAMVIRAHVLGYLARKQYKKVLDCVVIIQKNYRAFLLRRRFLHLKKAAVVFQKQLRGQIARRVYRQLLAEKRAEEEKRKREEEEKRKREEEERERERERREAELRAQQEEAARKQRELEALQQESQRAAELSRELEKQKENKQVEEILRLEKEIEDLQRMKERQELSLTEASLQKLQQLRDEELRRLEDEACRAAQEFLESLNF
UniProt P50990: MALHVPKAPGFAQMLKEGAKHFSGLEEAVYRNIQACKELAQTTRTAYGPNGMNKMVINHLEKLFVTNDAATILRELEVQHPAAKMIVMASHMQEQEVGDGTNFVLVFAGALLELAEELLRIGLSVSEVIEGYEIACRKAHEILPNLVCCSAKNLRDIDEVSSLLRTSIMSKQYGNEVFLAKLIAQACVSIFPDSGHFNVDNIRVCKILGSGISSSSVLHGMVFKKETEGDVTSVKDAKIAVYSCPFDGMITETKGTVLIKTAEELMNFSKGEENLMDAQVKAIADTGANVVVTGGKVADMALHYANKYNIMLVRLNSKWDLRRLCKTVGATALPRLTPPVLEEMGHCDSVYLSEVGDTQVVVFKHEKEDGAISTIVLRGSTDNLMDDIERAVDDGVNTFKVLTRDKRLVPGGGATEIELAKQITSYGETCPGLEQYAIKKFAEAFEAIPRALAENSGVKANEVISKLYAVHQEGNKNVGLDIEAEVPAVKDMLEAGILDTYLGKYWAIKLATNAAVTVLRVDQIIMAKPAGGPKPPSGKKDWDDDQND

- binding (MYO10-mScarlet): binds
Substance: C-terminally tagged CCT8 (from UniProt P50990 1-548)

- binding [1]: binds
- binding (MYO10-HMM (bovine)): binds
Substance: Endogenous CCT8 (from UniProt P50990 1-548)

- binding [2]: binds
Substance: recombinant GST-tagged CCT8 (from UniProt P50990 1-548)
